Data reported in paper PMC11588057.

Key:
[1] = target: endogenous dPCIF1 (Drosophila (endogenous in embryos)); assay: co-IP; endogenous proteins in wild-type embryos, western blot
[2] = target: Flag-tagged dPCIF1^S111A (Drosophila); assay: co-IP; Myc-HIRA with Flag-tagged wild-type and mutant dPCIF1 in S2 cells
[3] = target: Flag-tagged dPCIF1^S115A (Drosophila); assay: as above
[4] = target: Flag-tagged wild-type dPCIF1 (Drosophila); assay: as above

Row | binding [1] | binding [2] | binding [3] | binding [4] | Binder
1 | binds | – | – | – | endogenous HIRA (protein, UniProt O17468 1-1047) MRLLKPAWVHHDDKQIFSVDIHKDCTKFATGGQGSDCGRVVIWNLLPVLSDKAEFDADVPKMLCQMDQHLACVNCVRWSQNGQNLASGSDDKLIMIWRKSAGSSGVFGTGGMQKNHESWKCFYTLRGHDGDVLDLAWSPNDVYLASCSIDNTVIIWDAQAFPHSVATLKGHTGLVKGVSWDPLGRFLASQSDDRSIKIWNTMNWSLSHTITEPFEECGGTTHILRLSWSPDGQYLVSAHAMNGGGPTAQIIEREGWKCDKDFVGHRKAVTCVRFHNSILSRQENDGSPSKPLQYCCLAVGSRDRSLSVWMTALQRPMVVIHELFNASILDLTWGPQECLLMACSVDGSIACLKFTEEELGKAISEEEQNAIIRKMYGKNYVNGLGKSAPVLEHPQRLLLPQGDKPTKFPLSNNNEANQRPISKQTETRTKDGKRRITPMFIPLHEDGPTSLSMNIVSSSGSSTTALTSCSAAIGTLPAAAPTESAATPLMPLEPLVSKIDLGRLDSRLKTQPASQRRQSLPFDPGQSNELLRTPRLEEHQSSTCSPSNLNVTATGKSEFVKAALDYRLHVSNGHLKTQHGMLAKVTASDSKEMLWEFYVGSPLVNLNLCEKYAMLCSLDGSMRLISMETGCPVFPAISLTSSAVHCAFSPDNSLVGVLTECGLLRIWDIAKKVVSLAAGCLELLNKHGTAAQFSVTNQGMPLIGFPSGNSYSYSTSLQSWLVLATKDAIMYHGIRGTLPRDMDQMQQKFPLLSMQASSQNYFSFTGSMELRHSESWQQCAKIRFIENQIKLCEALQSLDELQHWHKMLTFQLATHGSEKRMRVFLDDLLSMPEPGISQFVPKLELMQCVLDTLKPHSEWNRLHSEYTELLKECKSERQKDIFATPAPPQQKTASSAGSSPRSGEATGEEVTEKDGATAVAAAVVAGSRMAVTTGTSTTTTTTASSSLSSSGSSSSTSGSGSSSSSSSTSSLSVPQPAPSLSPEIQTLDSPTVCIDDEILSASSSLPPLDTSPVEVSPASTSGGAASTSPAASVAGSAPVSSSKTDQT
2 | – | binds | binds | binds | Myc-HIRA (protein, UniProt O17468 1-1047) MRLLKPAWVHHDDKQIFSVDIHKDCTKFATGGQGSDCGRVVIWNLLPVLSDKAEFDADVPKMLCQMDQHLACVNCVRWSQNGQNLASGSDDKLIMIWRKSAGSSGVFGTGGMQKNHESWKCFYTLRGHDGDVLDLAWSPNDVYLASCSIDNTVIIWDAQAFPHSVATLKGHTGLVKGVSWDPLGRFLASQSDDRSIKIWNTMNWSLSHTITEPFEECGGTTHILRLSWSPDGQYLVSAHAMNGGGPTAQIIEREGWKCDKDFVGHRKAVTCVRFHNSILSRQENDGSPSKPLQYCCLAVGSRDRSLSVWMTALQRPMVVIHELFNASILDLTWGPQECLLMACSVDGSIACLKFTEEELGKAISEEEQNAIIRKMYGKNYVNGLGKSAPVLEHPQRLLLPQGDKPTKFPLSNNNEANQRPISKQTETRTKDGKRRITPMFIPLHEDGPTSLSMNIVSSSGSSTTALTSCSAAIGTLPAAAPTESAATPLMPLEPLVSKIDLGRLDSRLKTQPASQRRQSLPFDPGQSNELLRTPRLEEHQSSTCSPSNLNVTATGKSEFVKAALDYRLHVSNGHLKTQHGMLAKVTASDSKEMLWEFYVGSPLVNLNLCEKYAMLCSLDGSMRLISMETGCPVFPAISLTSSAVHCAFSPDNSLVGVLTECGLLRIWDIAKKVVSLAAGCLELLNKHGTAAQFSVTNQGMPLIGFPSGNSYSYSTSLQSWLVLATKDAIMYHGIRGTLPRDMDQMQQKFPLLSMQASSQNYFSFTGSMELRHSESWQQCAKIRFIENQIKLCEALQSLDELQHWHKMLTFQLATHGSEKRMRVFLDDLLSMPEPGISQFVPKLELMQCVLDTLKPHSEWNRLHSEYTELLKECKSERQKDIFATPAPPQQKTASSAGSSPRSGEATGEEVTEKDGATAVAAAVVAGSRMAVTTGTSTTTTTTASSSLSSSGSSSSTSGSGSSSSSSSTSSLSVPQPAPSLSPEIQTLDSPTVCIDDEILSASSSLPPLDTSPVEVSPASTSGGAASTSPAASVAGSAPVSSSKTDQT
3 | no binding | – | – | – | endogenous GAGA factor (GAF) (protein, UniProt Q08605 1-582) MSLPMNSLYSLTWGDYGTSLVSAIQLLRCHGDLVDCTLAAGGRSFPAHKIVLCAASPFLLDLLKNTPCKHPVVMLAGVNANDLEALLEFVYRGEVSVDHAQLPSLLQAAQCLNIQGLAPQTVTKDDYTTHSIQLQHMIPQHHDQDQLIATIATAPQQTVHAQVVEDIHHQGQILQATTQTNAAGQQQTIVTTDAAKHDQAVIQAFLPARKRKPRVKKMSPTAPKISKVEGMDTIMGTPTSSHGSGSVQQVLGENGAEGQLLSSTPIIKSEGQKVETIVTMDPNNMIPVTSANAATGEITPAQGATGSSGGNTSGVLSTPKAKRAKHPPGTEKPRSRSQSEQPATCPICYAVIRQSRNLRRHLELRHFAKPGVKKEKKTTSGKKSSSGSSGSGSGALSSSGSVPQVQTVQSLHTLQGVQVKKDPDAQQQQQQQQQQQQQQQQQAMTVSGATGGQVQQQVQQVQQQVQQQQQQQQQQQQQLQHHQIIDSSGNITTATTSAQAAAAAQQQAAGQQQQLVAQSDGSESGAPLSIAQVQTLQGHQIIGNLNQVNITDFQQQQPQQQQQQQQQQQQQQQQQQQTQQTL

These are yes or no findings as the source states them, for the method shown. Binding seen in cells or lysates may run through a third protein. Binding can be weak; no strength is given. For some assays here: Sequences can lack the tags named with a protein.
